Laboratory results: article doi:10.1101/2020.11.14.382416
No constants are given. Whether binding was seen depends on the method and setting. In cells and extracts the contact can be indirect. Some results given as binding are weak or reduced against the parent protein; the word gives no strength.

Protein sequences, listed by entry. Tags and fused reporters are not part of them. Lines headed by an entry give the natural chain unless they say otherwise; changes in a name come on top.
UniProt Q96KQ7: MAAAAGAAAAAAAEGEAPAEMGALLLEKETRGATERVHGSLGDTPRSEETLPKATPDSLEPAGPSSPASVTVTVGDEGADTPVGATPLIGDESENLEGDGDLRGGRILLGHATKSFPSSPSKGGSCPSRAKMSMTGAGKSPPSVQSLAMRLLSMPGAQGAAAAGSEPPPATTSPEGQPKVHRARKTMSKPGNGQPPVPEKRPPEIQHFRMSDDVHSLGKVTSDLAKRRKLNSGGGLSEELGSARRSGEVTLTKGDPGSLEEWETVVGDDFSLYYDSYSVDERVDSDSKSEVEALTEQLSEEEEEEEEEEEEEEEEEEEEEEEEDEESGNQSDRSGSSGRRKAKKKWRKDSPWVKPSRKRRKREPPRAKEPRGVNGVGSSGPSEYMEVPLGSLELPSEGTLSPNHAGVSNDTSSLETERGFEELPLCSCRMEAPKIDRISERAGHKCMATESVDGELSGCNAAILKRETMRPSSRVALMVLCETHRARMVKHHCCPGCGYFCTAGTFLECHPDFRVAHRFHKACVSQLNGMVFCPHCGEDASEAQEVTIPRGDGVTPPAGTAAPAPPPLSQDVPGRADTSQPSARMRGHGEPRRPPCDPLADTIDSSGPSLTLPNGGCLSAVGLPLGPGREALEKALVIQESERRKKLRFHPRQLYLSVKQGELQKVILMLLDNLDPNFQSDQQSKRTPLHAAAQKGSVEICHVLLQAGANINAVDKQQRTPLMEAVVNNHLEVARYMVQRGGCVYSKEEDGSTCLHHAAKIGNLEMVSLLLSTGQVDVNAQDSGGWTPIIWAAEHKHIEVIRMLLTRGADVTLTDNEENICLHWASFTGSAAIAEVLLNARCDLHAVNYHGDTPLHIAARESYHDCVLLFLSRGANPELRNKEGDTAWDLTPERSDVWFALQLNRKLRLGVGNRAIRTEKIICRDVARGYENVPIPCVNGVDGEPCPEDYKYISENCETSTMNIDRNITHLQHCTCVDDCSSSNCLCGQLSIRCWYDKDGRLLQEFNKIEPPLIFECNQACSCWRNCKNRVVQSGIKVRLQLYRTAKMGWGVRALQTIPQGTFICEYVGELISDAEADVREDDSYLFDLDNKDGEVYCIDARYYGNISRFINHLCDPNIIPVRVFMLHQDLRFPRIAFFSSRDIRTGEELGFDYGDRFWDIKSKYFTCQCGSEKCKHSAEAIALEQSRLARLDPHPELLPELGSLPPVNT
UniProt Q86U44: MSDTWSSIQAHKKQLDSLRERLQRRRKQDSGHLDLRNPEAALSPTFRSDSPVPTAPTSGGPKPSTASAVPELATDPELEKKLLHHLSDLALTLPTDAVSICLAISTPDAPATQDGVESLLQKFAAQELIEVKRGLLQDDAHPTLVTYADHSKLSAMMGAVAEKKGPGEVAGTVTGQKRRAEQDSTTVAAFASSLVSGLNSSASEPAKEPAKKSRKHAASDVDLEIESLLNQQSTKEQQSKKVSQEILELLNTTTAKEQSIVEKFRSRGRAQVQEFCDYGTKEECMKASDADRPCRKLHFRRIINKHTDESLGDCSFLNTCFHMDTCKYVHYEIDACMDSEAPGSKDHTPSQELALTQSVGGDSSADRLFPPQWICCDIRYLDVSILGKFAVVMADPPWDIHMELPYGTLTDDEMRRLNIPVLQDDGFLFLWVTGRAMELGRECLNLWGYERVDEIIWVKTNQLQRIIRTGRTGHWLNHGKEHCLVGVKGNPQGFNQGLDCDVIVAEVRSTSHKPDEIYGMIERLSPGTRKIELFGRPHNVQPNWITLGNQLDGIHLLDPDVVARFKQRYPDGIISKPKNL
UniProt Q9Z148: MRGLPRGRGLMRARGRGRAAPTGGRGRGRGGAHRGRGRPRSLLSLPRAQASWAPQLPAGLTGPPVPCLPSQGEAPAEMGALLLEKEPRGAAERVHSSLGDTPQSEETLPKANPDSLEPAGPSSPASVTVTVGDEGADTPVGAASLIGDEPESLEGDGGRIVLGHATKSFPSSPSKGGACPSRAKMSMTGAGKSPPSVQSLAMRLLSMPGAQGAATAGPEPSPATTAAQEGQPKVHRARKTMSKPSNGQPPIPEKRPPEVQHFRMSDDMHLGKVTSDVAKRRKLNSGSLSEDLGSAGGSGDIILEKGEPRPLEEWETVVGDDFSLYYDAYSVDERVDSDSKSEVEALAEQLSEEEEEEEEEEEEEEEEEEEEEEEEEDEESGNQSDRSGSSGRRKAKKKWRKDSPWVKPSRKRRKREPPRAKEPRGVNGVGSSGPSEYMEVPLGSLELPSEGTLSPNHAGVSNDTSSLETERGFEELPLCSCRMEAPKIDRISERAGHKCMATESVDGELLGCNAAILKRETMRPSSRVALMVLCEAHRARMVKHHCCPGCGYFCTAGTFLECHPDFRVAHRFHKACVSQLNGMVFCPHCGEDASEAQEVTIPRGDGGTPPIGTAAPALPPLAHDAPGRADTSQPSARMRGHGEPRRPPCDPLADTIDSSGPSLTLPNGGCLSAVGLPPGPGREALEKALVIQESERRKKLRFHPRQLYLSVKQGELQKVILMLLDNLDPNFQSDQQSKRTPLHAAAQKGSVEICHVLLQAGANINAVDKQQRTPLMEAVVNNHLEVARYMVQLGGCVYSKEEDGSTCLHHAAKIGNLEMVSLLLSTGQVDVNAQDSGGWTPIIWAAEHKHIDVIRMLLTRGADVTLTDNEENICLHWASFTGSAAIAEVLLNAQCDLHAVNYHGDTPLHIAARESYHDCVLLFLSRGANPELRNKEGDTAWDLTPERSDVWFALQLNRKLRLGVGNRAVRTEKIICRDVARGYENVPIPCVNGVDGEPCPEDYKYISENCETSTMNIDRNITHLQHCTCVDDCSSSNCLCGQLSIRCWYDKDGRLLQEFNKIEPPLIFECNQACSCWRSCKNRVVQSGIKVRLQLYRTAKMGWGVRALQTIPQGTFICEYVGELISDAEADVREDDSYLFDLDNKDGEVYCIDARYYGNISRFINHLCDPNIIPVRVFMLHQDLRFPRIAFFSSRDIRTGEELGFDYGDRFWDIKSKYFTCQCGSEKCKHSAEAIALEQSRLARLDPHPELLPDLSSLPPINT
UniProt Q8C3P7: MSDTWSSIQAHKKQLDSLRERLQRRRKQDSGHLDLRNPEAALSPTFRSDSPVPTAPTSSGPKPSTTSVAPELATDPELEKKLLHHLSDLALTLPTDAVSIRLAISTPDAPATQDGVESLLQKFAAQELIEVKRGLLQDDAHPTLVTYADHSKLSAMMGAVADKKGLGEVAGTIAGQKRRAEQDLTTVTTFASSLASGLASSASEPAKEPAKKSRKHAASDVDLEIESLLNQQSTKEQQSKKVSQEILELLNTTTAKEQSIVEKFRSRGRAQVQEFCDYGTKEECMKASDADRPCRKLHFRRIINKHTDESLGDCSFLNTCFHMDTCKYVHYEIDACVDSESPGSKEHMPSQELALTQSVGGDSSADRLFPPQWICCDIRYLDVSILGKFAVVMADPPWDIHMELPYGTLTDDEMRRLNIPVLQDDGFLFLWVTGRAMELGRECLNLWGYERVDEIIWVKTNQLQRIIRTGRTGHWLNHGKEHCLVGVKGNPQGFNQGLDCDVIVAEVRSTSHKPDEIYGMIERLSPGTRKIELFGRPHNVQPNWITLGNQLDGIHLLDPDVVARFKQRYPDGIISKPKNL
UniProt P55884: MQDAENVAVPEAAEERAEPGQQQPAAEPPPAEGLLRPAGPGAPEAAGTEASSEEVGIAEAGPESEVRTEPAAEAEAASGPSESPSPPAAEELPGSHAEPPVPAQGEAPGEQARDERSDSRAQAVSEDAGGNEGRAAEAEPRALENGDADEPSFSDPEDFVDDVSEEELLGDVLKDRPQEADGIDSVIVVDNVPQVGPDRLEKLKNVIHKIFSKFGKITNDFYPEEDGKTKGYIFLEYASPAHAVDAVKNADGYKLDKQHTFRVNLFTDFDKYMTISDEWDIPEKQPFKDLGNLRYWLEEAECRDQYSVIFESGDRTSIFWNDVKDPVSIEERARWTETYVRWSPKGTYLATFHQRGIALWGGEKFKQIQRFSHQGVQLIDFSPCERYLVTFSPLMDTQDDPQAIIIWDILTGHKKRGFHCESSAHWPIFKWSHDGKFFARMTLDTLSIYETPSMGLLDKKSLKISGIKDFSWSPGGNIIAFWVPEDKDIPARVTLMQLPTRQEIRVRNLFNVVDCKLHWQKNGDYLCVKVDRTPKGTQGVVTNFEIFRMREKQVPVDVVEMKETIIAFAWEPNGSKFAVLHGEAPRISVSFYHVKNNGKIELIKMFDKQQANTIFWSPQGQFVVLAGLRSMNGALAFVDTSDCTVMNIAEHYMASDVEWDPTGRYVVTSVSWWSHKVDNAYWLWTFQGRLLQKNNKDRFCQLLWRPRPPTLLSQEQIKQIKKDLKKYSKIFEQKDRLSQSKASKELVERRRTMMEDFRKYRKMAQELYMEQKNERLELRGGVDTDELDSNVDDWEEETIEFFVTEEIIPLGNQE
UniProt P06730: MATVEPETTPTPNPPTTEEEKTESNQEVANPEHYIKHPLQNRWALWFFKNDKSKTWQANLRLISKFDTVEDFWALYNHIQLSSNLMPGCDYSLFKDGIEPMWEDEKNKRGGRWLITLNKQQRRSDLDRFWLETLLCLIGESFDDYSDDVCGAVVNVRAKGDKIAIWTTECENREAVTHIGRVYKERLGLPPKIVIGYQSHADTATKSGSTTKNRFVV

Tests used:
HA-tagged G9a = HA-tagged G9a (UniProt Q96KQ7); experiment: co-IP
Flag-tagged METTL3 = Flag-tagged METTL3 (UniProt Q86U44); experiment: co-IP
[1] = biological target: G9a (EHMT2), endogenous, captured by the biotinylated G9a inhibitor UNC0965 (mouse (endogenous in Raw 264.7)) (UniProt Q9Z148); experiment: pull-down
Flag-K215R METTL3 = Flag-K215R METTL3 (UniProt Q86U44); experiment: co-IP
Flag-K281R METTL3 = Flag-K281R METTL3 (UniProt Q86U44); experiment: co-IP

Flag-tagged METTL3 (from UniProt Q86U44 1-580) (enzyme)
binding (HA-tagged G9a): binds

HA-tagged G9a (from UniProt Q96KQ7 1-1210) (enzyme)
binding (Flag-tagged METTL3): binds

METTL3, endogenous in Raw 264.7 macrophages (from UniProt Q8C3P7 1-580) (enzyme)
binding [1]: binds

eIF3b (from UniProt P55884 1-814)
binding (Flag-tagged METTL3): binds

eIF4e (from UniProt P06730 1-217)
binding (Flag-K215R METTL3): binds | binding (Flag-K281R METTL3): binds
